Results are given in words; binding and its absence hold for the method and conditions named. In cells and extracts the contact can be indirect. Some entries that bind do so weakly or less than the wild type.
T1: nuclear receptor coactivator 7 (NCOA7) (mouse (endogenous in adult mouse brain and kidney)) (UniProt Q6DFV7)
T1 sequence: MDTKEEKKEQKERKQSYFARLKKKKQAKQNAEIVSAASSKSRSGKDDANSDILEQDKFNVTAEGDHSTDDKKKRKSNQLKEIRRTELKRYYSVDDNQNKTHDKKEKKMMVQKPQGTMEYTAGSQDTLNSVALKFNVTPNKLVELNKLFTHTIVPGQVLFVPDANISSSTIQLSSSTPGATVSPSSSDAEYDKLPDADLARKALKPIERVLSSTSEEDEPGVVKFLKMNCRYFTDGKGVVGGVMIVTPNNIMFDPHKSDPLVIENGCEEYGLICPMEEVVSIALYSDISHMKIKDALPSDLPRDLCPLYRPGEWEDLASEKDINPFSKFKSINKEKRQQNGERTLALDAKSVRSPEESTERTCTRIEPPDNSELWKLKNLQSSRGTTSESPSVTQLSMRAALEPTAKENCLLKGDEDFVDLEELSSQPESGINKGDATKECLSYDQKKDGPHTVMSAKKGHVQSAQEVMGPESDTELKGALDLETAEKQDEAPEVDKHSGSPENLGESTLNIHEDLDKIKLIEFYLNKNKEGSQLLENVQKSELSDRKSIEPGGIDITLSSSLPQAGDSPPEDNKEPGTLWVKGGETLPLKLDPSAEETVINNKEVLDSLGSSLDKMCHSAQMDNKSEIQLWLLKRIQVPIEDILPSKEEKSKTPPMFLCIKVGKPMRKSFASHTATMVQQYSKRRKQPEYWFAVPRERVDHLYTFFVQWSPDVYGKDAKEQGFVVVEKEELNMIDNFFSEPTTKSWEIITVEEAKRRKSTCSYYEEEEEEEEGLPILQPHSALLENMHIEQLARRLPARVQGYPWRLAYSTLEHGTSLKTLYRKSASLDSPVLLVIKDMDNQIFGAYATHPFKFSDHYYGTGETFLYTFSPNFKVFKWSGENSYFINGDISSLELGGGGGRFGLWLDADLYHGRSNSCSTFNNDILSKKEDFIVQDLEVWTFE

By UniProt entry, the sequences of proteins in these tests, tags left out.
UniProt P62814: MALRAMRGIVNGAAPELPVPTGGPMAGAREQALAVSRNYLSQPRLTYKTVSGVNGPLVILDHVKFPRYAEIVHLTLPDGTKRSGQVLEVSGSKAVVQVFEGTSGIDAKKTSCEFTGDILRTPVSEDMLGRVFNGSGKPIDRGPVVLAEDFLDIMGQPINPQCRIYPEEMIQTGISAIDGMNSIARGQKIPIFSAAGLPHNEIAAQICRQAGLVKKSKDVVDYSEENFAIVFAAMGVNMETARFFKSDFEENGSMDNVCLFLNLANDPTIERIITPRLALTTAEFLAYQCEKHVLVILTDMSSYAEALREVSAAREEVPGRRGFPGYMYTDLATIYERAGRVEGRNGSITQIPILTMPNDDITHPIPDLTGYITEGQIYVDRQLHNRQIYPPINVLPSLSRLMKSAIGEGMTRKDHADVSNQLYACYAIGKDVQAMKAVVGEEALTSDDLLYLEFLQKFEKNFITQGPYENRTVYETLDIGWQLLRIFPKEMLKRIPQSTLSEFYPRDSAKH
UniProt Q91YH6: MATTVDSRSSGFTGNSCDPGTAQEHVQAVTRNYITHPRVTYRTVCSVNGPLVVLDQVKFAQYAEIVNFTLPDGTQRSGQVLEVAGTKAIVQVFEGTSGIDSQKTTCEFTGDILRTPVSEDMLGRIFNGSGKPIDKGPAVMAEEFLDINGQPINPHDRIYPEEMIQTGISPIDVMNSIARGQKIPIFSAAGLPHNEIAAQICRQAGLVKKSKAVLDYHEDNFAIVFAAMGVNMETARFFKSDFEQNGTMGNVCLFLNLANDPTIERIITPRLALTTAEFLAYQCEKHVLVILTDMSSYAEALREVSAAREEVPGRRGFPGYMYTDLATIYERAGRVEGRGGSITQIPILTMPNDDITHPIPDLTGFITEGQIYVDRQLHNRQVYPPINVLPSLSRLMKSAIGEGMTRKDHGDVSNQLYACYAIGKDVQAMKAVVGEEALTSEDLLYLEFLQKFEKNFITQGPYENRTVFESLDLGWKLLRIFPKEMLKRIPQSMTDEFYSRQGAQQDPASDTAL
UniProt Q9Z1G4: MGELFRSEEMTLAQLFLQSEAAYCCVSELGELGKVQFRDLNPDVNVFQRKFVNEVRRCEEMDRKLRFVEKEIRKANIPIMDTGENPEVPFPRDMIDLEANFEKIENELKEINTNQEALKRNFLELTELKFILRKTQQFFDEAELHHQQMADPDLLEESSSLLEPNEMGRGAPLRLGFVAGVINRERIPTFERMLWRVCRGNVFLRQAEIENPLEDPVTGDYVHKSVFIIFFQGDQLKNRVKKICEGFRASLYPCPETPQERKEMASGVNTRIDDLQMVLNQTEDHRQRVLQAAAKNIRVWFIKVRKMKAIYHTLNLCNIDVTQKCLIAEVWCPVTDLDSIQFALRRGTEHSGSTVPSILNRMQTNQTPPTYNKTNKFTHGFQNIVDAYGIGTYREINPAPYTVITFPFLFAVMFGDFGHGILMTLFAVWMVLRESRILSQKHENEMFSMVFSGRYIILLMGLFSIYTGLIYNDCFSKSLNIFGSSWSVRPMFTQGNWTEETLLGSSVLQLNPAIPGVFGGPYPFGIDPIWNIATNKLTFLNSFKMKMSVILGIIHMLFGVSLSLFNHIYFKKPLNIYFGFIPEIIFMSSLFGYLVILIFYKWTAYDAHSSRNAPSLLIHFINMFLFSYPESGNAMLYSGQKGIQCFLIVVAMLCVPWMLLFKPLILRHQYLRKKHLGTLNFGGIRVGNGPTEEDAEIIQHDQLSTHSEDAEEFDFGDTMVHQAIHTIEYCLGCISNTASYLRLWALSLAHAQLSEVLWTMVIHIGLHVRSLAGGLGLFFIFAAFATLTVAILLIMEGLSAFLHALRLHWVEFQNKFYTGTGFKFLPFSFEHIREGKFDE
UniProt P50516: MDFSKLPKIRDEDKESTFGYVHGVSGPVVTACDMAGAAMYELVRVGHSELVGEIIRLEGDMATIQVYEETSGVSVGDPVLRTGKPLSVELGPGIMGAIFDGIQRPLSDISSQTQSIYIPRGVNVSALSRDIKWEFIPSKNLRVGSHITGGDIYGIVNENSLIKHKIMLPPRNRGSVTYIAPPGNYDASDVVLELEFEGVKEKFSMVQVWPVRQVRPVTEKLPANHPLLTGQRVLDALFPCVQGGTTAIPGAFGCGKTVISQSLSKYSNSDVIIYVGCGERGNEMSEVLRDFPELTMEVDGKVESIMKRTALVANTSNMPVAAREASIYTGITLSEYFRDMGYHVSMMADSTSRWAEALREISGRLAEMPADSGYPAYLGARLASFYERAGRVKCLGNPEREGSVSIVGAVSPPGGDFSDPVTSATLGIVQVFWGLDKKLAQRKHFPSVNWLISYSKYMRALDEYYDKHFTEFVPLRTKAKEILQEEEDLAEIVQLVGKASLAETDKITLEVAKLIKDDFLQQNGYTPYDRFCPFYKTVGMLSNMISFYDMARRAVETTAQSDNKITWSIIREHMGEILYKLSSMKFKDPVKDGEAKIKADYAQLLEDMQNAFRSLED

B1: nuclear receptor coactivator 7 (NCOA7) (protein, UniProt Q6DFV7 1-943)
chain: MDTKEEKKEQKERKQSYFARLKKKKQAKQNAEIVSAASSKSRSGKDDANSDILEQDKFNVTAEGDHSTDDKKKRKSNQLKEIRRTELKRYYSVDDNQNKTHDKKEKKMMVQKPQGTMEYTAGSQDTLNSVALKFNVTPNKLVELNKLFTHTIVPGQVLFVPDANISSSTIQLSSSTPGATVSPSSSDAEYDKLPDADLARKALKPIERVLSSTSEEDEPGVVKFLKMNCRYFTDGKGVVGGVMIVTPNNIMFDPHKSDPLVIENGCEEYGLICPMEEVVSIALYSDISHMKIKDALPSDLPRDLCPLYRPGEWEDLASEKDINPFSKFKSINKEKRQQNGERTLALDAKSVRSPEESTERTCTRIEPPDNSELWKLKNLQSSRGTTSESPSVTQLSMRAALEPTAKENCLLKGDEDFVDLEELSSQPESGINKGDATKECLSYDQKKDGPHTVMSAKKGHVQSAQEVMGPESDTELKGALDLETAEKQDEAPEVDKHSGSPENLGESTLNIHEDLDKIKLIEFYLNKNKEGSQLLENVQKSELSDRKSIEPGGIDITLSSSLPQAGDSPPEDNKEPGTLWVKGGETLPLKLDPSAEETVINNKEVLDSLGSSLDKMCHSAQMDNKSEIQLWLLKRIQVPIEDILPSKEEKSKTPPMFLCIKVGKPMRKSFASHTATMVQQYSKRRKQPEYWFAVPRERVDHLYTFFVQWSPDVYGKDAKEQGFVVVEKEELNMIDNFFSEPTTKSWEIITVEEAKRRKSTCSYYEEEEEEEEGLPILQPHSALLENMHIEQLARRLPARVQGYPWRLAYSTLEHGTSLKTLYRKSASLDSPVLLVIKDMDNQIFGAYATHPFKFSDHYYGTGETFLYTFSPNFKVFKWSGENSYFINGDISSLELGGGGGRFGLWLDADLYHGRSNSCSTFNNDILSKKEDFIVQDLEVWTFE

Experiments:
[1] = molecular target: T1, nuclear receptor coactivator 7 (NCOA7) (mouse (endogenous in adult mouse brain and kidney)); assay: co-IP; co-immunoprecipitation from mouse kidney in vivo (Supplementary Figure S6A, B); DEL model used; precipitating antibody not told in the text shown
[2] = molecular target: T1, nuclear receptor coactivator 7 (NCOA7) (mouse (endogenous in adult mouse brain and kidney)); assay: co-IP; IP with anti-NCOA7 (crosslinked to Protein A/G Plus agarose, overnight 4 °C) from membrane, cytosolic and nuclear fractions of WT adult mouse whole brain; DEL (Ncoa7 deletion) brain as specificity control; Western blot for V1 and V0 subunits
[3] = molecular target: V-ATPase V1 subunit ATP6V1B2 (mouse (endogenous in adult mouse whole brain)) (UniProt P62814); assay: co-IP; reciprocal IP with anti-ATP6V1B2 from the same adult mouse whole brain fractions; Western blot for NCOA7

Molecule	binding [2]	further results
kidney-specific V-ATPase V1 subunit ATP6V1B1 (from UniProt Q91YH6 1-513)	–	binding [1]: binds
V-ATPase V0 subunit ATP6V0a1 (from UniProt Q9Z1G4 1-839)	no binding	–
V-ATPase V1 subunit ATP6V1A(1) (from UniProt P50516 1-617)	binds	–
B1	–	binding [3]: binds
